Data on one molecule can be found in patent publication US20050282190A1.

These are yes or no findings as the source states them, for the method shown. Some results given as binding are weak or reduced against the parent protein; the word gives no strength.

The target of the test is T1, Recombinant yeast TBP (yeast) (UniProt P13393).
T1 sequence (looked up): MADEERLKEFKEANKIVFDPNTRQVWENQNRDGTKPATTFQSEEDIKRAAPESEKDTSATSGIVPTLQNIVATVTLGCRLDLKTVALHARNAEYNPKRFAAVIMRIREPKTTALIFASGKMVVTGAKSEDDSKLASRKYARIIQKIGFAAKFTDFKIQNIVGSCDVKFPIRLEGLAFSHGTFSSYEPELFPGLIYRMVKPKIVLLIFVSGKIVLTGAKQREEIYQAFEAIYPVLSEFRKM
Nature of the test: EMSA competition against labeled RNA aptamer AptTBP-101 on the TBP-TATA complex (25 nM TBP, 50 nM TATA-DNA, 200 nM recombinant protein).

B1: Recombinant yeast TFIIA (protein)
chain 1: MSNAEASRVYEIIVESVVNEVREDFENAGIDEQTLQDLKNIWQKKLTETKVTTFSWDNQFNEGNINGVQNDLNFNLATPGVNSSEFNIKEENTGNEGLILPNINSNNNIPHSGETNINTNTVEATNNSGATLNTNTSGNTNADVTSQPKIEVKPEIELTINNANITTVENIDDESEKKDDEEKEEDVEKTRKEKEQIEQVKLQAKKEKRSALLDTDEVGSELDDSDDDYLISEGEEDGPDENLMLCLYDKVTRTKARWKCSLKDGVVTINRNDYTFQKAQVEAEWV
chain 2: MAVPGYYELYRRSTIGNSLVDALDTLISDGRIEASLAMRVLETFDKVVAETLKDNTQSKLTVKGNLDTYGFCDDVWTFIVKNCQVTVEDSHRDASQNGSGDSQSVISVDKLRIVACNSKKSE
As to B1, the binding result is given as “binds”.
